Strings that start with PEPTIDE1 are HELM notation: dots part the residues, brackets hold end groups and non-standard residues.

A short description of the data set: general procedure: Fmoc solid-phase peptide synthesis; 2-Chloro-trityl chloride resin; HBTU. The conditions noted are these: conjugation step.

“PEPTIDE1{[Thy].[dR].[dR].[Cha].[dR].[Cha].[dR].[Cha].F.F.[NBDen]}$$$$V2.0”: the conjugation yield turned out to be 73%.

The values above are taken from PMC9159100 (Chemical Science, 2022).
